Measurements as given in PMC8163975.
Results are given in words; binding and its absence hold for the method and conditions named. For some assays here: In cells and extracts the contact can be indirect. Some binding calls cover weakened binding; strength is not graded here.

By UniProt entry, the sequences of proteins in these tests, tags left out. Residues count along the entry.
UniProt O75901, residues 25-119: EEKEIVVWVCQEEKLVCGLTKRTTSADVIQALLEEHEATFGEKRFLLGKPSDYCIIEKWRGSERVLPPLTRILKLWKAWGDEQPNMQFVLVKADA
UniProt Q92963: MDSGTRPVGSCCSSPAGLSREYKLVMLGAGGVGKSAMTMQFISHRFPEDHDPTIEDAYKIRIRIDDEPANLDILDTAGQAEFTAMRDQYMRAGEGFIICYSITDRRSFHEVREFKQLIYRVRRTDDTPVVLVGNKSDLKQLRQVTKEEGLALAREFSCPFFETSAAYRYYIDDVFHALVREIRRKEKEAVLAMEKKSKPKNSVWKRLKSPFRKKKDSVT
UniProt Q9H2L5, residues 174-262: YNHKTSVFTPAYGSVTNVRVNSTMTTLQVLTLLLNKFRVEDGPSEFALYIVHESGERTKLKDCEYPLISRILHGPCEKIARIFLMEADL
UniProt Q5EBH1, residues 200-358: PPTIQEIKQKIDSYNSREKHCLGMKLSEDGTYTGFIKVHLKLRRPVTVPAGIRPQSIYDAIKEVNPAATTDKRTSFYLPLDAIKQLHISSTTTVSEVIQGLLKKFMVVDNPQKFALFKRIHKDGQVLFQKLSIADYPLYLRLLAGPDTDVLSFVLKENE
UniProt P50749, residues 176-264: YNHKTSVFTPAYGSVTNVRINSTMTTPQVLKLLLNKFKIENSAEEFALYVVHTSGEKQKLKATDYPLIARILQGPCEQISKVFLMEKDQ
UniProt Q6ZTQ3, residues 218-306: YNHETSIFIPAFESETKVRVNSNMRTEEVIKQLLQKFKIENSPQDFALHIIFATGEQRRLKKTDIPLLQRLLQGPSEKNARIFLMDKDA
UniProt Q02833, residues 6-89: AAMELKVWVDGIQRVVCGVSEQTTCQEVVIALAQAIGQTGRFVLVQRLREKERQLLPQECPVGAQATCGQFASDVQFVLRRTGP
UniProt Q86WH2, residues 79-187: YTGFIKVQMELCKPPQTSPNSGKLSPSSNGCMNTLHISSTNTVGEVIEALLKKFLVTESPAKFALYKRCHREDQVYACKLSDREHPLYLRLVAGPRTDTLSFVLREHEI

Biological target: RASSF9 RA domain, His-tagged MBP fusion (human) (UniProt O75901)
Assay: pull-down; 20 μg His-tagged MBP-RASSF RA domains coupled to Ni-NTA beads, 200 μg lysate of transfected HEK 293T cells, 30 min at 4 °C; immunoblot anti-HA or anti-FLAG; only the target purified

| binding | Substance |
| --- | --- |
| binds | HA-tagged RIT1 (from UniProt Q92963 1-219) |

Biological target: RHEB1•mGppNHp (human) (UniProt Q15382)
Assay: fluorescence polarisation; increasing concentrations of RA/RB domains as MBP fusions (0.002–300 μM) added to mGppNHp-bound RAS proteins (1 μM); 30 mM Tris-HCl pH 7.4, 100 mM NaCl, 5 mM MgCl2, 3 mM DTT; quadratic ligand-binding equation; both purified

| binding | Substance |
| --- | --- |
| binds | CRAF RB domain, MBP fusion (from UniProt P04049 51-131) (domain or fragment) |
| binds weakly | RASSF4 RA domain, MBP fusion (from UniProt Q9H2L5 174-262) (domain or fragment) |
| binds weakly | RASSF5 RA domain, His-tagged MBP fusion (from UniProt Q5EBH1 200-358) (domain or fragment) |

The next lines start with the substance.

| Substance | binding |
| --- | --- |
| RASSF2 RA domain, MBP fusion (from UniProt P50749 176-264) (domain or fragment) | binds weakly |
| RASSF6 RA domain, MBP fusion (from UniProt Q6ZTQ3 218-306) (domain or fragment) | binds weakly |
| RASSF7 RA domain, His-tagged MBP fusion (from UniProt Q02833 6-89) (domain or fragment) | binds weakly |
| RASSF3 RA domain, MBP fusion (from UniProt Q86WH2 79-187) (domain or fragment) | binds weakly |
